The campaign covered roughly 53,000 sequences. About 3,700 (7%) were called active.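 The calls were made as follows: active = gene knockdowns whose robust z-score for IL-1 alpha signal is at least 2 or at most -2, so actives lie on both sides; inactive = the rest.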 Some of the results follow.
Assay: Components of the Cytosolic LPS Sensing Pathway: Gene Identification via Genome-wide siRNA Screen;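 also: robust z of the log signal after scaling to non-targeting control siRNA wells of the plate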
Conditions: RAW264.7 macrophages, IL-1a HTRF, actives lie on both sides, screened at 100 nM (by protocol), cells primed 5 h with Pam3CSK4 first
Summary of the method: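 IL-1a HTRF of supernatants after 24 hour LipidA transfection of Pam3CSK4-primed (5 hours) RAW264.7 cells, 48h post-siRNA transfection (100 nM). Scores: percent of plate negative-control median, then log-based robust z-score.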

Q: With GGCUCUGGUGAACUACAUGTT against Olfr1378 as the sequence, how does the z-score read?
A: inactive: 0.411

Q: For GGAGAUCAUGUUUAAGAAUTT against Nicn1, which z-score is on record?
A: inactive: -0.802

Q: Which z-score does the source give for GGAAUGACCAAGAAACAACTT against Recql4 here?
A: inactive: 0.00745

Q: Which z-score does the source give for GCCUGUCUCCUCAAUGCUUTT against Gm9903 here?
A: inactive: -0.319

Q: For GGUAAAUGAUAUUCAUGGUTT against Pdlim2, which z-score is on record?
A: inactive: -0.516

Q: For GGAAAUCUUACAGACUGAGTT against Grid2, which z-score is on record?
A: inactive: 0.974

Q: Which z-score does the source give for GGCUCAGAGAACUUCUACATT against Eif6 here?
A: inactive: -1.19

Q: With GCACGGUCAAGUUUUGAUUTT against Prkaa2 as the sequence, how does the z-score read?
A: inactive: -0.792

Q: With GCCAUGACCAUCUUUCUCUTT against Olfr1413 as the sequence, how does the z-score read?
A: active: -3.03

Q: With UACUCUGGUAACACCCACUTT against Olfr98 as the sequence, how does the z-score read?
A: inactive: -1.23

Q: With CCAACUUUCUCUUAGGAAATT against Igfl3 as the sequence, how does the z-score read?
A: inactive: -0.487

Q: For CCCAAAUAUACCUGUGACATT against Txndc8, which z-score is on record?
A: inactive: 0.412

Q: With GGUGGAAUUCAUCAAGAACTT against Kcnc1 as the sequence, how does the z-score read?
A: inactive: 0.0468

Q: Which z-score does the source give for GGACCUAAAGAUUGUCUUCTT against Stam here?
A: inactive: -0.79

Q: With CCGAGAACCUUAAACUCCCTT against Sowahc as the sequence, how does the z-score read?
A: inactive: 0.161

Q: For GGCAAGGUGUUUUAUAACATT against Flt4, which z-score is on record?
A: inactive: 1.25

Q: With GGAGUUCGUCAACAAGAAGTT against Dll1 as the sequence, how does the z-score read?
A: inactive: -0.0899

Q: For GGUGGACUUCAUGUAGAUUTT against Eif3m, which z-score is on record?
A: inactive: -1.07

Q: Which z-score does the source give for GGGUAGAAAUGAGAAGUUCTT against Tcf20 here?
A: inactive: 0.766

Q: For CCAUCGUCUAUCAUUUAGUTT against Six4, which z-score is on record?
A: inactive: 0.691

Q: For GGGUAUAGAAUGAUUAUGGTT against Ly6g2, which z-score is on record?
A: active: -2.39

Q: With GGCUUUCAAGACACUUCUUTT against Ccl6 as the sequence, how does the z-score read?
A: inactive: -1.6

Q: Which z-score does the source give for GGCAUCAAUAACUCAACAUTT against Slc5a8 here?
A: inactive: -0.256

Q: With GGCACGAAGUCCGAGAAAUTT against Hs2st1 as the sequence, how does the z-score read?
A: inactive: -0.278

Q: For GGGUGGAAGAAAGGUAAAGTT against Cd68, which z-score is on record?
A: inactive: -0.64

Q: Which z-score does the source give for CCCACGAGCAAUAAAAUUGTT against Lmbr1l here?
A: inactive: -1.31

Q: Which z-score does the source give for CGUGGAAAGAAAAUUAUCATT against Psmd11 here?
A: active: -2.21

Q: Which z-score does the source give for GCCAAGUGGUGACAUCAACTT against Ralgds here?
A: active: 2.7

Q: With GGCAACUUCAUGGGUUUCATT against Tyr as the sequence, how does the z-score read?
A: inactive: 1.73

Q: For CCAACCUAAACAAUGCAUUTT against Actn4, which z-score is on record?
A: inactive: -0.431

Q: With GGAUUUGAUUCCGCCAACGTT against Pon2 as the sequence, how does the z-score read?
A: active: -2.03

Q: With GGUGUGACAUGGUUUGAUATT against Lyrm2 as the sequence, how does the z-score read?
A: inactive: -0.00504

Q: Which z-score does the source give for GGUUCUAAUUAGAGAAACATT against Tcte1 here?
A: inactive: 0.461

Q: Which z-score does the source give for GCCACGUAUAACCACGACATT against Sun5 here?
A: inactive: 0.246

Q: For CCGUAUGGACUGGUUUACUTT against Chrdl1, which z-score is on record?
A: inactive: 0.0556

Q: With GGACAGAGCGUGCACUAGATT against Slc66a1 as the sequence, how does the z-score read?
A: inactive: -1.32

Q: For GCUGUCACAGUUUGUGAUUTT against Gak, which z-score is on record?
A: inactive: -0.108

Q: For GGUCUUGAAUGUCAAGGCUTT against Mylk, which z-score is on record?
A: inactive: 0.114

Q: With GCACCCUGAUGACUGAGUUTT against Olfr204 as the sequence, how does the z-score read?
A: inactive: 1.15

Q: For GGACAUUGUAGGAGCCCAUTT against Kynu, which z-score is on record?
A: inactive: -0.153

Q: For GGAAGUUUCUGAAUGCUGUTT against Klrd1, which z-score is on record?
A: inactive: 0.0912

Q: For GGAAAAGUCCAAGUUUGAATT against Hmgb2, which z-score is on record?
A: inactive: -0.104

Q: For CCGUUAAGUAGCUGGAAGATT against Ubl4b, which z-score is on record?
A: inactive: 0.488

Q: Which z-score does the source give for CCAAUGCAAUGUUAGCUUUTT against Tas1r3 here?
A: inactive: 0.898

Q: For CCCGAGAUGAGGAACUUUUTT against Ndnf, which z-score is on record?
A: inactive: -0.359

Q: For GCAAGGUUAUCGCAUUUGGTT against Olfr1511, which z-score is on record?
A: inactive: -0.854

Q: Which z-score does the source give for GCUCAUACAUGGUGGACUATT against Tex37 here?
A: inactive: -0.653

Q: Which z-score does the source give for GGGUAUCAGUGCCUUCCUGTT against Acads here?
A: inactive: -1.05

Q: For CGCCGUAUUUAGACUAAAATT against Capn11, which z-score is on record?
A: inactive: 1.13

Q: With GGAAAGGUGAACACAAAUGTT against Gatb as the sequence, how does the z-score read?
A: inactive: 0.388

Q: For CCAAUAGCUAGUCUCCUAGTT against Vmn2r29, which z-score is on record?
A: inactive: 0.0992

Q: Which z-score does the source give for GCUCAUAAUUUUGACAGCUTT against Cyp51 here?
A: inactive: 0.168

Q: With GGAUGUAAAACUCUUCUACTT against Deptor as the sequence, how does the z-score read?
A: inactive: 1.28

Q: For CCUGAUAUUCAUGACCAAATT against Wasf2, which z-score is on record?
A: inactive: -0.0177

Q: Which z-score does the source give for GGAGAAUCAUGUGAGCCUGTT against Tph1 here?
A: inactive: -0.0851

Q: Which z-score does the source give for GGUAGUCACUAUCUUAAUCTT against Olfr1101 here?
A: inactive: -0.164

Q: With CGAGAAUAUUCGCCCAACCTT against Erbb3 as the sequence, how does the z-score read?
A: inactive: 0.682

Q: Which z-score does the source give for GGAAAGAGCUUUUUAUUGUTT against Zfp235 here?
A: inactive: 0.145

Q: For CCUUUCAAGGAAAUGAUCCTT against Rxfp1, which z-score is on record?
A: inactive: -1.66

Q: For CGUGUAUCGUUGUCUGAAUTT against Donson, which z-score is on record?
A: active: 2.75

Q: Which z-score does the source give for GCAGAUCGAUUUUACCUCGTT against Tm2d1 here?
A: inactive: 0.116

Q: With CCAUGAAAGAGGUAAUGCATT against Mdm4 as the sequence, how does the z-score read?
A: inactive: -0.634

Q: For GGUUGUGUAAAAUAGUACUTT against Hp1bp3, which z-score is on record?
A: inactive: 0.172

Q: Which z-score does the source give for CCAGAACUCACUGUUGAUUTT against Gabre here?
A: inactive: 0.29

Q: Which z-score does the source give for GGGUUUUAUUGGAAAAGGATT against Riok3 here?
A: inactive: 0.595

Q: With GGUGGUGGCUCUCAACUUATT against Fcrl1 as the sequence, how does the z-score read?
A: inactive: 0.242

Q: Which z-score does the source give for GGCACUUAAGGAAAUUGGGTT against Bloc1s1 here?
A: active: -2.02

Q: For GCCUUGGUACCAUAAUGCATT against Synm, which z-score is on record?
A: inactive: 0.224

Q: For GCAUAUCCAAACAUGUGAUTT against Rnase11, which z-score is on record?
A: inactive: -0.806

Q: For GGCAGAGAUUAGAUCUCAGTT against Tex13a, which z-score is on record?
A: inactive: 0.146

Q: For CCCAAGAGCAAACUAUGAATT against Sult3a1, which z-score is on record?
A: inactive: 0.267

Q: With CGCAGGAUUGAGUUAAUUATT against Gm11541 as the sequence, how does the z-score read?
A: inactive: -0.809

Q: Which z-score does the source give for GCACAAUUUCAUACCUUGGTT against Olfr490 here?
A: inactive: -1.53

Q: With CGGAAAUUGACCUACAAUATT against Gtf3c5 as the sequence, how does the z-score read?
A: inactive: 1.18

Q: Which z-score does the source give for GGAGCUUCUUGACCUCGUGTT against Frmd4a here?
A: inactive: 0.184

Q: With GGAUUGAAGCAGGCAGCUUTT against Purb as the sequence, how does the z-score read?
A: inactive: -0.787

Q: Which z-score does the source give for GGCUACUGAUUAAAUGCUATT against Ermap here?
A: inactive: -1.16

Q: Which z-score does the source give for GGGCCAAGGAACCUAUUUGTT against Ltbr here?
A: inactive: 0.58

Q: Which z-score does the source give for GGAAGCCAAAAAGUUUUUATT against Cyp3a44 here?
A: inactive: 0.26

Q: For CGAGAACCCACUUUUAAAGTT against Olfr701, which z-score is on record?
A: inactive: -0.455

Q: Which z-score does the source give for GGUCAGGAAACCAUCAUGATT against Siae here?
A: inactive: -0.738

Q: Which z-score does the source give for ACUAUGGUUGGUUCAAACGTT against Acat2 here?
A: inactive: -1.23

Q: With GGAUCUGAUAACGUGGACATT against H2-Q2 as the sequence, how does the z-score read?
A: inactive: 0.168

Q: With GCUAGGAUUGUUCACAAACTT against Spdef as the sequence, how does the z-score read?
A: inactive: -0.707

Q: For CCAAAUGACAAAAAACCUUTT against Zfp217, which z-score is on record?
A: inactive: 0.0484

Q: For GCUGAUUCGGCUUAUGAUCTT against Tfdp2, which z-score is on record?
A: inactive: 0.181

Q: Which z-score does the source give for CCAUUAAUCCCUGGAGCGATT against Guca1a here?
A: inactive: 1.01

Q: With GGCCUGGAUGGAAAUUUGCTT against Fabp4 as the sequence, how does the z-score read?
A: inactive: -0.851

Q: With CCUUUCCUUUGUUGAUUUCTT against Olfr887 as the sequence, how does the z-score read?
A: inactive: -0.288

Q: With CGACAAGAGAGCACAGAGATT against Traf3ip1 as the sequence, how does the z-score read?
A: inactive: -1.9

Q: For GGAGUUGAGAUCAUGUAGGTT against Mettl6, which z-score is on record?
A: inactive: -1.56

Q: For CCCUCAAAGUCAUUUCAAATT against Cfap43, which z-score is on record?
A: inactive: -1.61

Q: With CCCAAAGAUAGAGCUCUGUTT against Sec61a2 as the sequence, how does the z-score read?
A: inactive: -1.94

Q: Which z-score does the source give for GGCCAAAAACAAGGAGACCTT against Stk10 here?
A: inactive: 0.0817

Q: With GGUGUUCCUAUAAAAGUAUTT against Tfb2m as the sequence, how does the z-score read?
A: inactive: 0.597

Q: With GUCUUUCUGUCUUGUCUUGTT against Fbxo21 as the sequence, how does the z-score read?
A: inactive: -1.19

Q: Which z-score does the source give for GGUAGAAAAGAAUAUUGAGTT against Cspp1 here?
A: inactive: 1.89

Q: Which z-score does the source give for GGCGAUUAAACUAUACAUUTT against Rrm2 here?
A: inactive: 0.0358

Q: Which z-score does the source give for CGUCUUUCCUCACUAGCAATT against Cdc42ep4 here?
A: inactive: 0.562

Q: For GGCUGCCUCGAAAUUACAATT against Lamb3, which z-score is on record?
A: inactive: -0.675

Q: For GCAGAGUUUGCAUGCUGUUTT against Duxbl1, which z-score is on record?
A: inactive: -1.24

Q: With AGGACUAGGGAUCCUAAUUTT against Ubl5 as the sequence, how does the z-score read?
A: inactive: -0.74

Q: For GGGAUUGCUACAGAGACUCTT against Grk6, which z-score is on record?
A: inactive: 0.176

Q: With GGUCCAUACUCCUAAAGAATT against Mpzl1 as the sequence, how does the z-score read?
A: inactive: -0.727

Q: For GGUCUUCUUUAGUUCAGAATT against Dbndd1, which z-score is on record?
A: inactive: -0.0862

Q: For GGAACAAAAGAAGAAUACCTT against Pkhd1, which z-score is on record?
A: inactive: 0.48

Q: Which z-score does the source give for GGUUUCUUAUCAAACUCCATT against Farp2 here?
A: inactive: -0.598

Source: PubChem BioAssay AID1508600 (Functional Genomics Laboratory (NCATS/FGL), 2020)
